No constants are given. Whether binding was seen depends on the method and setting. Binding calls can cover weak binding; strength is not graded here. Tags and fused reporters may be left off the sequences shown.
Biological target: T1, His6-tagged FloA (Bacillus subtilis) (UniProt P54466)
T1 sequence: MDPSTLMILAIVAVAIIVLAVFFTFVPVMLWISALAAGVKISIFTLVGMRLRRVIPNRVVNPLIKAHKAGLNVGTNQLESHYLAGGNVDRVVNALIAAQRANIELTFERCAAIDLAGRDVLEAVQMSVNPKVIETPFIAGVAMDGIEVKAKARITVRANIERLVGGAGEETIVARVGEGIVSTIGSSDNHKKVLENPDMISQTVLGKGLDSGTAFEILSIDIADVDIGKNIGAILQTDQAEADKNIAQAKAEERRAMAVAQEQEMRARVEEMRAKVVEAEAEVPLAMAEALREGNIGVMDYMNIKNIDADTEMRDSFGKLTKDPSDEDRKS
Assay: native gel or EMSA; blue-native PAGE (4-20% gradient) of the membrane fraction, solubilised with 1% DDM, of B. subtilis overexpressing His6-FloA or His6-FloT; bands that held the flotillin found by anti-His immunoblot, cut and analysed by LC/MS

Amino acid sequences for entries named in this document (tags omitted). A change or cut given only in a name is not applied to a line headed by its entry.
UniProt Q01466: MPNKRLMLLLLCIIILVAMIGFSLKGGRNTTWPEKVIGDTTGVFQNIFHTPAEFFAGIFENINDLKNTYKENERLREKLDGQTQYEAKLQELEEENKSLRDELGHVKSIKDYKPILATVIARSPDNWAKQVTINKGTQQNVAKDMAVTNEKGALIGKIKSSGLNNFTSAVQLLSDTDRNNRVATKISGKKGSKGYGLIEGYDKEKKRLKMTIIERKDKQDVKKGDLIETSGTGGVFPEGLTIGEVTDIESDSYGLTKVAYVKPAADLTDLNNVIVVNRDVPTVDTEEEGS

binding: binds
Substance: MreC (from UniProt Q01466)
